These are yes or no findings as the source states them, for the method shown. Some binding calls cover weakened binding; strength is not graded here. For some assays here: Where a sequence is shown, tags or fusion partners need not be part of it.

Common to all, as to assay: two-hybrid
The target in experiment [1] is T1, BD-FtsZ1 (Arabidopsis thaliana) (UniProt Q42545).
T1 sequence: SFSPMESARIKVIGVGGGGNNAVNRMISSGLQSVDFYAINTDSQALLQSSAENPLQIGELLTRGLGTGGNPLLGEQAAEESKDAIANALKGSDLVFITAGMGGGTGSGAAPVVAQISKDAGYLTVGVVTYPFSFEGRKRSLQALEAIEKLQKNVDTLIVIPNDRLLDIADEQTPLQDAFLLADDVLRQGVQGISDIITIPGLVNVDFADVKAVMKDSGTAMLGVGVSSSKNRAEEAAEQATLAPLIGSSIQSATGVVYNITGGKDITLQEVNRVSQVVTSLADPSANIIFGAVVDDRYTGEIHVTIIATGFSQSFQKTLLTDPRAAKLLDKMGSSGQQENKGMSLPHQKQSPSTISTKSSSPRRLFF

Experiment [2] concerns the target T2, ARC3_(41-598), partner of AD-ARC6 derivatives in the two-hybrid (Arabidopsis thaliana) (UniProt Q6F6B5).
T2 sequence: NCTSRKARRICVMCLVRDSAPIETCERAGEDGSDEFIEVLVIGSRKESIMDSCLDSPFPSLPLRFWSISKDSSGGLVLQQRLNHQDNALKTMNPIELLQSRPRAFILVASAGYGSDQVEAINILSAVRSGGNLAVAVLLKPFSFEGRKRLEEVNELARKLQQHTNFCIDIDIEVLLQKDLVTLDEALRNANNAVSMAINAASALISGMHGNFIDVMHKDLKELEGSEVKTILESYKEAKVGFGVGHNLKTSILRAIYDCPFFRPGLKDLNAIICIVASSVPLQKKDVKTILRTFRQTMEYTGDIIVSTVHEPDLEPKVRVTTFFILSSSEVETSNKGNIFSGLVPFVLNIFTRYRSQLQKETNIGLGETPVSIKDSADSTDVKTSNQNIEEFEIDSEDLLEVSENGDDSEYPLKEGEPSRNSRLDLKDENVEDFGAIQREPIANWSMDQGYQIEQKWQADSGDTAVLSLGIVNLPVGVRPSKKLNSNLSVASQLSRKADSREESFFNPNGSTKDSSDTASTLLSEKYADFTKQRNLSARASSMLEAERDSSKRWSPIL

Experiment [3] concerns the target T3, ARC3_(41-741), partner of AD-ARC6 derivatives in the two-hybrid (Arabidopsis thaliana) (UniProt Q6F6B5).
T3 sequence: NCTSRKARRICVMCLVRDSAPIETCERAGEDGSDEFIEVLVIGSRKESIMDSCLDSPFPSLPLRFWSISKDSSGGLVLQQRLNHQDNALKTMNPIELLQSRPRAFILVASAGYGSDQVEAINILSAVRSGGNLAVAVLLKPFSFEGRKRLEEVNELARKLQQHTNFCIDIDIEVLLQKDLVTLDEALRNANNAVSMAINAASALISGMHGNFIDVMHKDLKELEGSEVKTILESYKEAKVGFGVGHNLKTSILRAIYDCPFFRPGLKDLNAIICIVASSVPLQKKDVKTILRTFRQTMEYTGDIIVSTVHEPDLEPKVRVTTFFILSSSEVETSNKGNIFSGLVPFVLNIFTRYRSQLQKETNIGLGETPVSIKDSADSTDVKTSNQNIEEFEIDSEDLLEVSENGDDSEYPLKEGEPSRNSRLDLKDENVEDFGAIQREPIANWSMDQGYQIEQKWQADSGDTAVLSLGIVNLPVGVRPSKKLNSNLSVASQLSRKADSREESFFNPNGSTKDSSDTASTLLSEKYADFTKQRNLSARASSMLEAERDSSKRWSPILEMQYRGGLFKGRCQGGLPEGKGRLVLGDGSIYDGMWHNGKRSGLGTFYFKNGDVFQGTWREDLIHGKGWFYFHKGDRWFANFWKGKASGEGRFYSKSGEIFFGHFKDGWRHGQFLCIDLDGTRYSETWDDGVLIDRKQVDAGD

The target of experiment [4] is T4, ARC3_(598-741) (Arabidopsis thaliana) (UniProt Q6F6B5).
T4 sequence: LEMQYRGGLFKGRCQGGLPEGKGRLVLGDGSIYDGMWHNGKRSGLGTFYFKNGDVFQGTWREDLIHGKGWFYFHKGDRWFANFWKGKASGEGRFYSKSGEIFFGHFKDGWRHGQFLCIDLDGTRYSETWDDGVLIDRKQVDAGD

Experiment [5] concerns the target T5, pGBKT7-ARC6JLD (Arabidopsis thaliana) (UniProt Q9FIG9).
T5 sequence: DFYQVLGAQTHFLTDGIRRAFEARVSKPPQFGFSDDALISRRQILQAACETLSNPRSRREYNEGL

B1: ARC3_(41-598), partner of the BD-FtsZ proteins in the two-hybrid (domain or fragment, UniProt Q6F6B5 41-598)
chain: NCTSRKARRICVMCLVRDSAPIETCERAGEDGSDEFIEVLVIGSRKESIMDSCLDSPFPSLPLRFWSISKDSSGGLVLQQRLNHQDNALKTMNPIELLQSRPRAFILVASAGYGSDQVEAINILSAVRSGGNLAVAVLLKPFSFEGRKRLEEVNELARKLQQHTNFCIDIDIEVLLQKDLVTLDEALRNANNAVSMAINAASALISGMHGNFIDVMHKDLKELEGSEVKTILESYKEAKVGFGVGHNLKTSILRAIYDCPFFRPGLKDLNAIICIVASSVPLQKKDVKTILRTFRQTMEYTGDIIVSTVHEPDLEPKVRVTTFFILSSSEVETSNKGNIFSGLVPFVLNIFTRYRSQLQKETNIGLGETPVSIKDSADSTDVKTSNQNIEEFEIDSEDLLEVSENGDDSEYPLKEGEPSRNSRLDLKDENVEDFGAIQREPIANWSMDQGYQIEQKWQADSGDTAVLSLGIVNLPVGVRPSKKLNSNLSVASQLSRKADSREESFFNPNGSTKDSSDTASTLLSEKYADFTKQRNLSARASSMLEAERDSSKRWSPIL
Consider B1, for which, in experiment [1], the binding entry is recorded as “binds”.

B2: ARC6_(68-614) (domain or fragment, UniProt Q9FIG9 68-614)
chain: ATLVSPPPSIDRPERHVPIPIDFYQVLGAQTHFLTDGIRRAFEARVSKPPQFGFSDDALISRRQILQAACETLSNPRSRREYNEGLLDDEEATVITDVPWDKVPGALCVLQEGGETEIVLRVGEALLKERLPKSFKQDVVLVMALAFLDVSRDAMALDPPDFITGYEFVEEALKLLQEEGASSLAPDLRAQIDETLEEITPRYVLELLGLPLGDDYAAKRLNGLSGVRNILWSVGGGGASALVGGLTREKFMNEAFLRMTAAEQVDLFVATPSNIPAESFEVYEVALALVAQAFIGKKPHLLQDADKQFQQLQQAKVMAMEIPAMLYDTRNNWEIDFGLERGLCALLIGKVDECRMWLGLDSEDSQYRNPAIVEFVLENSNRDDNDDLPGLCKLLETWLAGVVFPRFRDTKDKKFKLGDYYDDPMVLSYLERVEVVQGSPLAAAAAMARIGAEHVKASAMQALQKVFPSRYTDRNSAEPKDVQETVFSVDPVGNNVGRDGEPGVFIAEAVRPSENFETNDYAIRAGVSESSVDETTVEMSVADMLKE
Regarding B2, the binding entry in experiment [2] is “no binding”; in experiment [3], “binds”; in experiment [4], “binds”; in experiment [1], “no binding”.

B3: cpHsp70-1 (protein, UniProt Q9STW6 1-718)
chain: MASSAAQIHVLGGIGFASSSSSKRNLNGKGGTFMPRSAFFGTRTGPFSTPTSAFLRMGTRNGGGASRYAVGPVRVVNEKVVGIDLGTTNSAVAAMEGGKPTIVTNAEGQRTTPSVVAYTKSGDRLVGQIAKRQAVVNPENTFFSVKRFIGRKMNEVDEESKQVSYRVVRDENNNVKLECPAINKQFAAEEISAQVLRKLVDDASRFLNDKVTKAVITVPAYFNDSQRTATKDAGRIAGLEVLRIINEPTAASLAYGFDRKANETILVFDLGGGTFDVSVLEVGDGVFEVLSTSGDTHLGGDDFDKRVVDWLAAEFKKDEGIDLLKDKQALQRLTEAAEKAKIELSSLTQTNMSLPFITATADGPKHIETTLTRAKFEELCSDLLDRVRTPVENSLRDAKLSFKDIDEVILVGGSTRIPAVQELVRKVTGKEPNVTVNPDEVVALGAAVQAGVLAGDVSDIVLLDVTPLSIGLETLGGVMTKIIPRNTTLPTSKSEVFSTAADGQTSVEINVLQGEREFVRDNKSLGSFRLDGIPPAPRGVPQIEVKFDIDANGILSVSAVDKGTGKKQDITITGASTLPKDEVDQMVQEAERFAKDDKEKRDAIDTKNQADSVVYQTEKQLKELGEKIPGEVKEKVEAKLQELKDKIGSGSTQEIKDAMAALNQEVMQIGQSLYNQPGAGGPGAGPSPGGEGASSGDSSSSKGGDGDDVIDADFTDSQ
Consider B3, for which the binding entry in experiment [5] is listed as “no binding”.

B4: ARC6JLD (ARC6_(89-153)), as used in Figure 4A (domain or fragment, UniProt Q9FIG9 89-153)
chain: DFYQVLGAQTHFLTDGIRRAFEARVSKPPQFGFSDDALISRRQILQAACETLSNPRSRREYNEGL
B4: the binding result in experiment [4] is reported as “binds”.

B5: ARC6_(ΔJLD) (domain or fragment, UniProt Q9FIG9)
chain: ATLVSPPPSIDRPERHVPIPILDDEEATVITDVPWDKVPGALCVLQEGGETEIVLRVGEALLKERLPKSFKQDVVLVMALAFLDVSRDAMALDPPDFITGYEFVEEALKLLQEEGASSLAPDLRAQIDETLEEITPRYVLELLGLPLGDDYAAKRLNGLSGVRNILWSVGGGGASALVGGLTREKFMNEAFLRMTAAEQVDLFVATPSNIPAESFEVYEVALALVAQAFIGKKPHLLQDADKQFQQLQQAKVMAMEIPAMLYDTRNNWEIDFGLERGLCALLIGKVDECRMWLGLDSEDSQYRNPAIVEFVLENSNRDDNDDLPGLCKLLETWLAGVVFPRFRDTKDKKFKLGDYYDDPMVLSYLERVEVVQGSPLAAAAAMARIGAEHVKASAMQALQKVFPSRYTDRNSAEPKDVQETVFSVDPVGNNVGRDGEPGVFIAEAVRPSENFETNDYAIRAGVSESSVDETTVEMSVADMLKE
As to B5, the binding entry in experiment [2], in experiment [3] and in experiment [4] was “binds” in each case.

B6: cpHsp70-2 (protein, UniProt Q9LTX9 1-718)
chain: MASSAAQIHILGGIGFPTSSSSSSTKNLDNKTNSIPRSVFFGNRTSPFTTPTSAFLRMGRRNNNASRYTVGPVRVVNEKVVGIDLGTTNSAVAAMEGGKPTIVTNAEGQRTTPSVVAYTKSKDRLVGQIAKRQAVVNPENTFFSVKRFIGRRMNEVAEESKQVSYRVIKDENGNVKLDCPAIGKQFAAEEISAQVLRKLVDDASRFLNDKVTKAVITVPAYFNDSQRTATKDAGRIAGLEVLRIINEPTAASLAYGFERKSNETILVFDLGGGTFDVSVLEVGDGVFEVLSTSGDTHLGGDDFDKRVVDWLASTFKKDEGIDLLKDKQALQRLTEAAEKAKIELSSLTQTNMSLPFITATADGPKHIETTLTRGKFEELCSDLLDRVRTPVENSLRDAKLSFKDIDEVILVGGSTRIPAVQDLVRKLTGKEPNVSVNPDEVVALGAAVQAGVLSGDVSDIVLLDVTPLSLGLETLGGVMTKIIPRNTTLPTSKSEVFSTAADGQTSVEINVLQGEREFVRDNKSIGSFRLDGIPPAPRGVPQIEVKFDIDANGILSVSASDKGTGKKQDITITGASTLPKDEVDTMVQEAERFAKEDKEKRDAIDTKNQADSVVYQTEKQLKELGEKIPGPVKEKVEAKLQELKEKIASGSTQEIKDTMAALNQEVMQIGQSLYNQPQPGGADSPPGGEASSSSDTSSSAKGGDNGGDVIDADFTDSN
Regarding B6, in experiment [5], the binding result is “no binding”.

The values are drawn from article doi:10.1101/2024.01.08.574726.
